# According to PMC8860602:
# The chains behind the UniProt entries cited, without tags or fusion partners. Where a name states a change or a piece, a line headed by the entry shows the natural chain unless it says otherwise. A line that says so, or that is headed by a name, gives the form on record, which may keep a tag or linker. Residues count along the entry.
# UniProt Q12888: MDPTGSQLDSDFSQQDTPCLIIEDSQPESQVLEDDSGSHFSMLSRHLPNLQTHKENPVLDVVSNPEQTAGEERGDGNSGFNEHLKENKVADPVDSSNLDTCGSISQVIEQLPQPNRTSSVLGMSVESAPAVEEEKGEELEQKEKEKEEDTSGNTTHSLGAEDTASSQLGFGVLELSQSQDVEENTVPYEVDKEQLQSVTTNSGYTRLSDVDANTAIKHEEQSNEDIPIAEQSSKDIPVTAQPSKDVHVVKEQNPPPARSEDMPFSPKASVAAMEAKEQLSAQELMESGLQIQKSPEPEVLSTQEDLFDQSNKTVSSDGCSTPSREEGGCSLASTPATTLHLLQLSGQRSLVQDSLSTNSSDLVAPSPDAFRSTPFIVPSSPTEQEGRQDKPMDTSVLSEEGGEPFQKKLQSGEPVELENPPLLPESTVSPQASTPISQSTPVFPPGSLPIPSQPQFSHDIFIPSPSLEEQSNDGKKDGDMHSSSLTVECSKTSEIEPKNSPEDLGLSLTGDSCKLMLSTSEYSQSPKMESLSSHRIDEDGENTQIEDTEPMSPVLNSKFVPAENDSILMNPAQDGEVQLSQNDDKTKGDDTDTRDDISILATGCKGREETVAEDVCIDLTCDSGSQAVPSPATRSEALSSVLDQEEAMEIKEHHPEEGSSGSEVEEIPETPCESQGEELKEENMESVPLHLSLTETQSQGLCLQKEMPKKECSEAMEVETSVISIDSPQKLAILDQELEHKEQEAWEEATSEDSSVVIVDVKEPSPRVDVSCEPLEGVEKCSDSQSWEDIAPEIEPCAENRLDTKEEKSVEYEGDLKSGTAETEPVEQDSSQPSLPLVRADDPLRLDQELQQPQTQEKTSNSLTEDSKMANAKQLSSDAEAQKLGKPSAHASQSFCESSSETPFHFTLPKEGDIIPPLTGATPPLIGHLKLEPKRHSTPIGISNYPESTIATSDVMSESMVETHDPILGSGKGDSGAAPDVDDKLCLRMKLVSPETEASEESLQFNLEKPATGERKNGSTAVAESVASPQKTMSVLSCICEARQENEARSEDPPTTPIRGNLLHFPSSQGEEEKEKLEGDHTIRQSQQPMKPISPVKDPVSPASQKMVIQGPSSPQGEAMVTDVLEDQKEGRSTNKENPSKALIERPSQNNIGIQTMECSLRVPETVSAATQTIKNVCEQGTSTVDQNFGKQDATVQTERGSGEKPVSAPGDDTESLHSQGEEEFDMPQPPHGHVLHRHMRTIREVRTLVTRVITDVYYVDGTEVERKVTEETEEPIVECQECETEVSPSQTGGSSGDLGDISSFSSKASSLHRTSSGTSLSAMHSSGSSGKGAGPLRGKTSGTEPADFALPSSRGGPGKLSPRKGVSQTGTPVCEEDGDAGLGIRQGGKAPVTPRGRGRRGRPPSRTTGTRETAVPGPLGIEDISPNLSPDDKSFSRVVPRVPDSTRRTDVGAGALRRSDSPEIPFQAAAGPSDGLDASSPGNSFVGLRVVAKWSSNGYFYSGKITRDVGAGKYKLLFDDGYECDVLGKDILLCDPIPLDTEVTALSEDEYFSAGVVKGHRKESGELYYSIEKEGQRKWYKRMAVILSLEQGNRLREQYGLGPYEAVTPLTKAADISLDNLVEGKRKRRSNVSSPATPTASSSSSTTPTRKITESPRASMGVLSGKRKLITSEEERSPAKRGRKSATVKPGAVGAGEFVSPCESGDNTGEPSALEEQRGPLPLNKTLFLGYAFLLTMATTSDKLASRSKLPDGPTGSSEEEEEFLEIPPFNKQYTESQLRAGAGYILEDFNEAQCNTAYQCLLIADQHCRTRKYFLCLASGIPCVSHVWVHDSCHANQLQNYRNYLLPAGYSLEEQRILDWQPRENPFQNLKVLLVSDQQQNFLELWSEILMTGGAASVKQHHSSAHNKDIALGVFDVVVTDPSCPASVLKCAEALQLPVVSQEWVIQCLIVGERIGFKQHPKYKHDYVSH
# GST-53BP1-N (GST-tagged N-terminus of 53BP1): residues 1-699 of Q12888
# UniProt P53396: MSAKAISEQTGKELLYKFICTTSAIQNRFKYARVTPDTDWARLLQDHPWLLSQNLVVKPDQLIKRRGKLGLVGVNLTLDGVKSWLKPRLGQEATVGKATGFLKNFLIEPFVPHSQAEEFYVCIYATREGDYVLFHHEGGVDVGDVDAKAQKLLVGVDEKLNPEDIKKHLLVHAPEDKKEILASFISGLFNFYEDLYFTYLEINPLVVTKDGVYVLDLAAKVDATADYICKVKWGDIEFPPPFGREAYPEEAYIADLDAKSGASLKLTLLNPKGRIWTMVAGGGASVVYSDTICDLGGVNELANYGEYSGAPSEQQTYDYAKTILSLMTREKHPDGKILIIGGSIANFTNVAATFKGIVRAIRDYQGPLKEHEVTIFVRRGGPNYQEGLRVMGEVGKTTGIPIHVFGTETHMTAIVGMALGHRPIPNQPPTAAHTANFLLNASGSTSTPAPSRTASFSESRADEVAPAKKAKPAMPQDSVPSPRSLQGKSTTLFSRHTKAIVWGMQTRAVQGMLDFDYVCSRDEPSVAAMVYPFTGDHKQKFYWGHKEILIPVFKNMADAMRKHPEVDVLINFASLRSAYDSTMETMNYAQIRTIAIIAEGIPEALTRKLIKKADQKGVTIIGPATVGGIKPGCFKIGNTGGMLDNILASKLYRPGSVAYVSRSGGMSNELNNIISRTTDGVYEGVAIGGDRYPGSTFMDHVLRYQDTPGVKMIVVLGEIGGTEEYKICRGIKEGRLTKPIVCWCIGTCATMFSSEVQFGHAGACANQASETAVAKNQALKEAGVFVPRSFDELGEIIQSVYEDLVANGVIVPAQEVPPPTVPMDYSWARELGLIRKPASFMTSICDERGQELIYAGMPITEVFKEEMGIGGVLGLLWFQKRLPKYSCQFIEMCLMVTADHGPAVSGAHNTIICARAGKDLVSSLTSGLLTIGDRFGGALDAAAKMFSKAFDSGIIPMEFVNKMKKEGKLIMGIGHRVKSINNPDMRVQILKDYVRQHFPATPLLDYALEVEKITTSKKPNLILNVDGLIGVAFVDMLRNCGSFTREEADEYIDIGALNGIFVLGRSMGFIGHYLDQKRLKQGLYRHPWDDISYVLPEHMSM
# GFP-ACLY-D3 (CoA ligase-containing region, residues 631–850): residues 631-850 of P53396
# Results are given in words; binding and its absence hold for the method and conditions named. In cells and extracts the contact can be indirect. Some results given as binding are weak or reduced against the parent protein; the word gives no strength.
# Key:
# [1] = biological target: 53BP1, endogenous in HeLa cells (human (endogenous in HeLa)) (UniProt Q12888); assay: co-IP; endogenous proteins; IPs with anti-53BP1, anti-ACLY or control IgG from extracts of 53BP1+/+ or 53BP1-/- MEFs and of control or 53BP1-depleted HeLa cells; RIPA buffer, Protein G Sepharose, 4 °C overnight; western blot
# [2] = biological target: HA-53BP1 (human wild-type 53BP1, pcDNA-HA-53BP1) (human) (UniProt Q12888); assay: co-IP; HA-tagged 53BP1 constructs and GFP-tagged ACLY constructs co-transfected in HEK293T cells; RIPA buffer, Protein G Sepharose, 4 °C overnight; western blot
# [3] = biological target: GST-53BP1-N (GST-tagged N-terminus of 53BP1) (human) (UniProt Q12888); assay: pull-down; recombinant GST-53BP1-N on Glutathione Sepharose 4B beads, total lysates of HEK293T cells transfected with WT GFP-ACLY or deletion mutants D3 and D4; binding buffer 20 mM Tris-HCl pH 7.5, 150 mM NaCl, 0.5% NP40, 4 °C, 90 min; only the target purified
binding [1],binding [2],binding [3],Substance
binds,,,"ACLY, endogenous in HeLa cells (from UniProt P53396 1-1101) (enzyme)"
,binds,,GFP-ACLY (full length) (from UniProt P53396-1 1-1101) (enzyme)
,binds,binds,"GFP-ACLY-D3 (CoA ligase-containing region, residues 631–850) (from UniProt P53396-1 631-850) (domain or fragment)"
